# Data as given in PubChem BioAssay AID1259280 (Sanger Institute, 2017)
# Screen: 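Kinome siRNA screen for partners that synergise with BYL719, cetuximab or trametinib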 (primary screen)
# Cell system: human SNU407 colorectal cancer cells
# Reagents: siRNA pool against human genes
# Treatment: anchor drugs BYL719 at 1 µM, cetuximab at 5 µg/ml or trametinib at 10 nM, or DMSO vehicle alone; exposure time not given
# Measurement: 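Viability per well scaled to a non-targeting pool and averaged over replicates, with a robust z-score from controls and a synergy score per anchor drug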
# Reading the numbers: viability z-score, no drug and viability vs control, no drug: higher = more cells survive the knock-down
# Rule for the call: 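Essential calls require a no-drug robust viability z-score under -3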
# Calls: active = essential (knock-down alone kills cells); inactive = no change without drug
# Shown is a random part of 794 reagents. 12 of them (1.5%) count as active. 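Calls cover knock-down without drug only; synergy scores stand apart, values above 0.15 being treated as synergy.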 No viability above 1 is reported: the scale is capped. Further read-outs or replicates are left out here. Not stated in the record: the amount of reagent, the time to read-out.
gene,"viability z-score, no drug","viability vs control, no drug (fraction of control)",call
DLG4 (discs large MAGUK scaffold protein 4),-0.362,0.903,inactive
MOK (MOK protein kinase),0.901,1,inactive
LIMK2 (LIM domain kinase 2),0.266,0.952,inactive
RIOK2 (RIO kinase 2),-0.972,0.857,inactive
ADGRL2 (adhesion G protein-coupled receptor L2),-0.322,0.907,inactive
MAPKAPK2 (MAPK activated protein kinase 2),0.901,1,inactive
FGFR4 (fibroblast growth factor receptor 4),-0.737,0.875,inactive
"PRAG1 (PEAK1 related, kinase-activating pseudokinase 1)",-2.68,0.727,inactive
NAGK (N-acetylglucosamine kinase),-3.3,0.679,active
CRIM1 (cysteine rich transmembrane BMP regulator 1),0.256,0.951,inactive
NR2F2 (nuclear receptor subfamily 2 group F member 2),-1.26,0.835,inactive
"HCK (HCK proto-oncogene, Src family tyrosine kinase)",0.102,0.939,inactive
AXIN2 (axin 2),-0.267,0.911,inactive
CDC42BPB (CDC42 binding protein kinase beta),0.901,1,inactive
CDKL4 (cyclin dependent kinase like 4),-1.78,0.795,inactive
GRK5 (G protein-coupled receptor kinase 5),0.026,0.933,inactive
"ROS1 (ROS proto-oncogene 1, receptor tyrosine kinase)",-0.237,0.913,inactive
GRK2 (G protein-coupled receptor kinase 2),-1.58,0.81,inactive
STK39 (serine/threonine kinase 39),-0.727,0.876,inactive
MAP3K13 (mitogen-activated protein kinase kinase kinase 13),0.901,1,inactive
EPHA4 (EPH receptor A4),-0.189,0.917,inactive
LMTK3 (lemur tail kinase 3),-0.557,0.889,inactive
CSF1R (colony stimulating factor 1 receptor),-0.116,0.922,inactive
MECOM (MDS1 and EVI1 complex locus),0.901,1,inactive
CREBBP (CREB binding lysine acetyltransferase),0.901,1,inactive
SIK3 (SIK family kinase 3),0.0885,0.938,inactive
CDK5R1 (cyclin dependent kinase 5 regulatory subunit 1),-1,0.855,inactive
PNCK (pregnancy up-regulated nonubiquitous CaM kinase),0.194,0.946,inactive
TAB1 (TGF-beta activated kinase 1 (MAP3K7) binding protein 1),0.901,1,inactive
UCK2 (uridine-cytidine kinase 2),-0.0632,0.926,inactive
GK2 (glycerol kinase 2),0.426,0.964,inactive
DGKH (diacylglycerol kinase eta),-0.572,0.887,inactive
TLK1 (tousled like kinase 1),0.807,0.993,inactive
MAK (male germ cell associated kinase),-0.152,0.92,inactive
CDK8 (cyclin dependent kinase 8),0.901,1,inactive
PBK (PDZ binding kinase),0.78,0.991,inactive
HK1 (hexokinase 1),0.901,1,inactive
DAPK1 (death associated protein kinase 1),0.901,1,inactive
CPNE3 (copine 3),0.625,0.979,inactive
SMAD4 (SMAD family member 4),-0.411,0.9,inactive
NF1 (neurofibromin 1),-0.562,0.888,inactive
HSPB8 (heat shock protein family B (small) member 8),0.721,0.986,inactive
PACSIN1 (protein kinase C and casein kinase substrate in neurons 1),0.901,1,inactive
PAPSS2 (3'-phosphoadenosine 5'-phosphosulfate synthase 2),0.901,1,inactive
CLK2 (CDC like kinase 2),0.901,1,inactive
PIK3C2A,-3.26,0.682,active
NEK4 (NIMA related kinase 4),-0.0835,0.925,inactive
DGKQ (diacylglycerol kinase theta),-0.592,0.886,inactive
PANK4 (pantothenate kinase 4 (inactive)),0.125,0.941,inactive
MELK (maternal embryonic leucine zipper kinase),0.901,1,inactive

Individual results from the entries so far.
Result of DAPK1 (death associated protein kinase 1) in “viability z-score, no drug”: 0.901
Value of ROS1 (ROS proto-oncogene 1, receptor tyrosine kinase) under “viability z-score, no drug”: -0.237
NR2F2 (nuclear receptor subfamily 2 group F member 2), viability vs control, no drug (fraction of control) → 0.835
Under “viability vs control, no drug (fraction of control)”, MECOM (MDS1 and EVI1 complex locus) reads 1
